Reference: paper doi:10.1101/2022.02.15.480428

Chains of the proteins cited; added tags and fusions are not shown. Lines headed by an entry give the natural chain unless they say otherwise; changes in a name come on top. A line that says so, or that is headed by a name, gives the form on record, which may keep a tag or linker.
UniProt P48727: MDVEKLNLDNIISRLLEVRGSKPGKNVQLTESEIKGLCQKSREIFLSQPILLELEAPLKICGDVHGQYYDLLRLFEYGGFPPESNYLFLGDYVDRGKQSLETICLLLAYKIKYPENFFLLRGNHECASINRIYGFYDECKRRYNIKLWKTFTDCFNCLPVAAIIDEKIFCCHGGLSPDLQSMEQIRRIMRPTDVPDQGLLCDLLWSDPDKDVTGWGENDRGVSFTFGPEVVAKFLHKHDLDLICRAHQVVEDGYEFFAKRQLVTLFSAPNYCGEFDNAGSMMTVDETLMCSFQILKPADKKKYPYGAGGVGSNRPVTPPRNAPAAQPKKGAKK
UniProt P62136: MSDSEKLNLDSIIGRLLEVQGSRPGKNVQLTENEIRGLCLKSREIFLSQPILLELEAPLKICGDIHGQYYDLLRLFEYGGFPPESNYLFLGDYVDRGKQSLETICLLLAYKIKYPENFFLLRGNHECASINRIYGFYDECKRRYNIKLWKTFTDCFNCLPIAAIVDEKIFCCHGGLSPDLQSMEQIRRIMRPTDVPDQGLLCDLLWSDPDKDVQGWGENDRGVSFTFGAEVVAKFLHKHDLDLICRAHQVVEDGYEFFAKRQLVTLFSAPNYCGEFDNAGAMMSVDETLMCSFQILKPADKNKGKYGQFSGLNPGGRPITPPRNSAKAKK
UniProt P62140: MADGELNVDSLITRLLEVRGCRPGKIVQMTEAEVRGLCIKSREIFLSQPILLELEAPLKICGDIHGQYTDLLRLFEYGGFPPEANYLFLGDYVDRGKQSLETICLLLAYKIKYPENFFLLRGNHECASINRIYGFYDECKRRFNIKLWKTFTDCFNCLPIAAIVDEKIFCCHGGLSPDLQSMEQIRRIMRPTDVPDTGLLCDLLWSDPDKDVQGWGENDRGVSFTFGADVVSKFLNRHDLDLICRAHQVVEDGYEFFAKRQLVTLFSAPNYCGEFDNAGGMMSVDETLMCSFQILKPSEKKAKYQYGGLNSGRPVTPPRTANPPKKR
PP1γ2 (P36873-2, form named): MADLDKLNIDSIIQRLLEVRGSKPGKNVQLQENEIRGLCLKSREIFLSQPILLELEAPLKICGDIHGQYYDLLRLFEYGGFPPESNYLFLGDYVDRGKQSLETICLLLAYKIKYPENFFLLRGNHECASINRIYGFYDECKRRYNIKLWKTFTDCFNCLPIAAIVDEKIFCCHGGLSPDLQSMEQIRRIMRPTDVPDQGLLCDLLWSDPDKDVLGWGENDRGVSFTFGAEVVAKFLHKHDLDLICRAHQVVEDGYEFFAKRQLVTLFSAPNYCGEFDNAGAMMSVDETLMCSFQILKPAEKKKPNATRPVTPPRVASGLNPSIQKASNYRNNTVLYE
UniProt Q27497: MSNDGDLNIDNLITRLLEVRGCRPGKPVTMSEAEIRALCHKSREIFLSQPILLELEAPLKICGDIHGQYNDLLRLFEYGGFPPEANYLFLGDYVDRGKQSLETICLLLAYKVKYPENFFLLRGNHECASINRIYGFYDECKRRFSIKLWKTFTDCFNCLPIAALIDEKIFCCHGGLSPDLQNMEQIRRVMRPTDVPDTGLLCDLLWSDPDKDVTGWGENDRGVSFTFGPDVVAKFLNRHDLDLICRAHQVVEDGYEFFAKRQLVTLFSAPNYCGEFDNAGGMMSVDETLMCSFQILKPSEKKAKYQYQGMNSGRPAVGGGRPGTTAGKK

Legend:
Test in all cases: affinity purification with mass spectrometry
[1] = target: T1, APE-1 endogenously tagged with 3xFLAG:GFP (C. elegans) (UniProt Q9XVN3)
T1 sequence: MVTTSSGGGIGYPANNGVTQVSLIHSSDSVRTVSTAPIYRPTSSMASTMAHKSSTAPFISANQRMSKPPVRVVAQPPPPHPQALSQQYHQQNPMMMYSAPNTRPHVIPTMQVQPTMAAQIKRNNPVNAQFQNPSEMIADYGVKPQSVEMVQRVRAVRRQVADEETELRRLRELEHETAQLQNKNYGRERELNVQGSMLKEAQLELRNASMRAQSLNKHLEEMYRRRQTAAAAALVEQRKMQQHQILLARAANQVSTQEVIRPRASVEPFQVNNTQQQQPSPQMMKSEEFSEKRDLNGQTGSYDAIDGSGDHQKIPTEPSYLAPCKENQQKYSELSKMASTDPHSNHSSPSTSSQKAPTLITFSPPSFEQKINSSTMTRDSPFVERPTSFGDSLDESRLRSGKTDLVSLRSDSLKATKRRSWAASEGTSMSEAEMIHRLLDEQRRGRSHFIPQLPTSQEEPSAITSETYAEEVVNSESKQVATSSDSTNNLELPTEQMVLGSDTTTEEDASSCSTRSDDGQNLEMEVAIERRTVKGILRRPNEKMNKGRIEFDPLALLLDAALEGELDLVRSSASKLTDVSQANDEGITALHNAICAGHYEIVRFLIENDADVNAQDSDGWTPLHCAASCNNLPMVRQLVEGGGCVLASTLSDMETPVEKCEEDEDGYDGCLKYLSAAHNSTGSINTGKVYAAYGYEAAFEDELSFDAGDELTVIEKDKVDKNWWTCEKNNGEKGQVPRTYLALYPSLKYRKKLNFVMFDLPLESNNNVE

[2] = target: T2, M. musculus ASPP2 with C-terminal linker:TEV-site:HaloTag (M. musculus) (UniProt Q8CG79)
T2 sequence: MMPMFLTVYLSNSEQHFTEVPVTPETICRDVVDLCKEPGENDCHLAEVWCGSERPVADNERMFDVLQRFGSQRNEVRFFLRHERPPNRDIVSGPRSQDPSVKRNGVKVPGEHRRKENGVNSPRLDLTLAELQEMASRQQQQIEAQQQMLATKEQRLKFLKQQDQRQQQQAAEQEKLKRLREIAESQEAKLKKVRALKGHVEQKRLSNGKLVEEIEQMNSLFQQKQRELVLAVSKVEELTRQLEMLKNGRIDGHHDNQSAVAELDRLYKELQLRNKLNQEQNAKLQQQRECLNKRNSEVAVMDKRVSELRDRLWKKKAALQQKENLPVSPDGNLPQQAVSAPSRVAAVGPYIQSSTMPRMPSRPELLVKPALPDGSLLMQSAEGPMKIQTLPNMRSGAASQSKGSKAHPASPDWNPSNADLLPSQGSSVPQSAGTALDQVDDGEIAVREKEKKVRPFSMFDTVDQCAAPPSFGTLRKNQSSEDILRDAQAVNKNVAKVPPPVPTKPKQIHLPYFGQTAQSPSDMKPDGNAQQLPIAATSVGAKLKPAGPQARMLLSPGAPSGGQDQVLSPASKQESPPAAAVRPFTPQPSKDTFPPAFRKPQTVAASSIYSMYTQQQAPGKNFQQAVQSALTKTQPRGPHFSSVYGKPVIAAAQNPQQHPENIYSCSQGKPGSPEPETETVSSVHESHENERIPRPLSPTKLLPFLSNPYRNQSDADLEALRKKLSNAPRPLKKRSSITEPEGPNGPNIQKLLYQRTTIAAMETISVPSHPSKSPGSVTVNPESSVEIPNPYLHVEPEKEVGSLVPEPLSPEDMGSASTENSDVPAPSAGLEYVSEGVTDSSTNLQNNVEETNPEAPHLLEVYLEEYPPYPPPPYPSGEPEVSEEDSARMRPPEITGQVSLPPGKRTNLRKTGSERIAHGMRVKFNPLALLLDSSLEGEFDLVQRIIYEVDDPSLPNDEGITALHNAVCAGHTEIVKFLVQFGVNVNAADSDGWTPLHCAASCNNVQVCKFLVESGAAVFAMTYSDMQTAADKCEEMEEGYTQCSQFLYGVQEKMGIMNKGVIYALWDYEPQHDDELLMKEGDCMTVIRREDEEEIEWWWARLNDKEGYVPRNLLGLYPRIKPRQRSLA

[3] = target: T3, H. sapiens iASPP with C-terminal linker:TEV-site:HaloTag (H. sapiens) (UniProt Q8WUF5)
T3 sequence: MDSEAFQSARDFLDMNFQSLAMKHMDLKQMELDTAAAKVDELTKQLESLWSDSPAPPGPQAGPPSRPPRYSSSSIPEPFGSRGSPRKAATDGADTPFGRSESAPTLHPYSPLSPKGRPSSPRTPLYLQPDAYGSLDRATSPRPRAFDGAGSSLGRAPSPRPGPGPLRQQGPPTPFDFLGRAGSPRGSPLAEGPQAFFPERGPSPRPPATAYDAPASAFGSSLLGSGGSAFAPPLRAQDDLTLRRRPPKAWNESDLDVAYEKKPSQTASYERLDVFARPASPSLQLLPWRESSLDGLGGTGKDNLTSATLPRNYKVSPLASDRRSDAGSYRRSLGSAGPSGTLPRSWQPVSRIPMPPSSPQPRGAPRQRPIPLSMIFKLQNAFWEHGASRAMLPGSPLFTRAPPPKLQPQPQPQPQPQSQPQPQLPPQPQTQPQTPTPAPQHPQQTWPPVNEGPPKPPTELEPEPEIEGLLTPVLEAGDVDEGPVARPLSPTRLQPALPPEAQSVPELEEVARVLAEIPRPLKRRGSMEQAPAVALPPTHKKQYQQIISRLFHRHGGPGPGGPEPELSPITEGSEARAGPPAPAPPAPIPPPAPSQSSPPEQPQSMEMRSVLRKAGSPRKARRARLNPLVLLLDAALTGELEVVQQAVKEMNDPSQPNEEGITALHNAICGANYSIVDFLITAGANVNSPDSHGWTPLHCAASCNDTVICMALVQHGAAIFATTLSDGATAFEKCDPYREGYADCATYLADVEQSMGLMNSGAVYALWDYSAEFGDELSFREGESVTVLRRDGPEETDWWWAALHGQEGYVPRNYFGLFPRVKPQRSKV

[4] = target: T4, M. musculus ASPP1 with C-terminal linker:TEV-site:HaloTag (M. musculus) (UniProt Q62415)
T4 sequence: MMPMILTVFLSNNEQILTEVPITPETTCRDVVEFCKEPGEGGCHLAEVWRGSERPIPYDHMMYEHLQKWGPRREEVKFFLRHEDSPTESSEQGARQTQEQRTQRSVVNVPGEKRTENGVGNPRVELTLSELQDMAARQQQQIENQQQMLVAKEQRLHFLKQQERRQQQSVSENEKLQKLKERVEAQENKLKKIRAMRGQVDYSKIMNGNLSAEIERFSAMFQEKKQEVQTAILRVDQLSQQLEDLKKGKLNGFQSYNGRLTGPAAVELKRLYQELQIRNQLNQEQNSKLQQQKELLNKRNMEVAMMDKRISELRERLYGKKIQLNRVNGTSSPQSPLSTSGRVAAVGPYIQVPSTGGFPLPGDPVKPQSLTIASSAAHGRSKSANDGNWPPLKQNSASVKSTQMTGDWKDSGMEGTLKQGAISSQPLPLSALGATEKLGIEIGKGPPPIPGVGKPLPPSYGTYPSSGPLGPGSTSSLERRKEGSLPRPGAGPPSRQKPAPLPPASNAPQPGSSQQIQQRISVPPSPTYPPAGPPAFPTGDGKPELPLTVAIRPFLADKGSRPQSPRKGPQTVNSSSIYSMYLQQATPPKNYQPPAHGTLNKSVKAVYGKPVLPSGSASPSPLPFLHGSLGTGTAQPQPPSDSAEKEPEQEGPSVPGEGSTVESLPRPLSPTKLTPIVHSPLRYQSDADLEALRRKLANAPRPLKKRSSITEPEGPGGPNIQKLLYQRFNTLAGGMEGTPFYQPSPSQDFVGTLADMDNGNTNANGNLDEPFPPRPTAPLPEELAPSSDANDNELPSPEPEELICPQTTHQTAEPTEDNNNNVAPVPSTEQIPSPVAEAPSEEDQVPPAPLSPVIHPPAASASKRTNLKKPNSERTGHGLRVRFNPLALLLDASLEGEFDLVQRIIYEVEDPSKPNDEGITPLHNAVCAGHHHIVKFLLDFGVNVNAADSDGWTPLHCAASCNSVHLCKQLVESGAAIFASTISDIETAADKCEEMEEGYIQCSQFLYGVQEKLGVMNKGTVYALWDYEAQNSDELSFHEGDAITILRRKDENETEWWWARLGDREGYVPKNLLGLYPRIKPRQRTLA

Row | Substance | binding [1] | binding [2] | binding [3] | binding [4]
1 | MLT-4 (C. elegans (endogenous in worms)) | no binding | – | – | –
2 | tubulin (C. elegans (endogenous in worms)) | binds | – | – | –
3 | GSP-2 (from UniProt P48727 1-333) (enzyme) | binds | – | – | –
4 | PP1α (from UniProt P62136 1-330) (enzyme) | – | binds | binds | binds

Second part, the substance after the results:

Row | binding [1] | binding [2] | binding [3] | binding [4] | Substance
5 | – | no binding | – | – | p53 (human) (from UniProt P04637 1-393)
6 | – | binds | binds | binds | PP1β (from UniProt P62140 1-327) (enzyme)
7 | – | binds | binds | binds | PP1γ2 (from UniProt P36873-2 1-337) (enzyme)
8 | no binding | – | – | – | GSP-1 (from UniProt Q27497 1-329) (enzyme)

No constants are given. Whether binding was seen depends on the method and setting. In cells and extracts the contact can be indirect. These calls come from enrichment with a bait or labelling near it, and not all partners need be listed. For some assays here: A no says only that the protein was not detected with the bait. Tags and fused reporters may be left off the sequences shown.
